This test has as its target recombinant Fc chimeric conjugate of human IL12 Rβ1 (human) (UniProt P42701). The test is described as follows: ELISA, coated antigen. Background: An ELISA detects its analyte on a solid surface through an enzyme-linked reagent.

Where a chain is given by its changes, count along the chain named. No constants are given. Whether binding was seen depends on the method and setting.

B1: Antibody 22 (antibody, V domains shown)
VH: QSVEESGGRLVTPGTPLTLTCTVSGFSLSNYGMSWVRQAPGKGLEWIGIITSRSTYYASWAKGRFTISKTSSTTVDLKMTSLTTEDTATYFCGVNNLWGQGTLVTVSS
VL: DPVLTQTPSSVSAAVGGTVTISCQSSQTINNNDLSWFQQKPGQPPKRLIYEASTLTSGVPSRFKGSGSGTQFTLTISDVQCDDAATYYCLGGYYSYGWYFGFGGGTEVVVK
notes: rabbit IgG in B-cell supernatant
B1: the binding entry is reported as “no binding (tested: OD 0.1 or lower)”.

B2: Antibody 68 (antibody, V domains shown)
VH: QSVEESGGRLVTPGTPLTLTCTVSGFSLSTYSMSWVRQAPGKGLEWIGTIAISGTTYYASWAKGRFTISKSSTTVDLKISSPTTEDTATYFCARYVSDLIGTNLWGPGTLVTVSS
VL: DVVMTQTPASVSEPVGGTVTIKCQASQSIGSNLAWHQQKPGQPPKLLIYAASNLASGVSSRFKGSRSGTEYTLTISAVQCDDAATYYCQYTYYGSSVVIGTFGGGTEVVVK
notes: as for B1
Regarding B2, the binding result is listed as “no binding (tested: OD 0.1 or lower)”.

B3: Antibody 48 (antibody, V domains shown)
VH: QSLEESGGDLVKPGASLTLTCTASGFDLNSDYWICWVRQAPGKGLEWIACIDTGYGDIYYASWAKGRFTISKTSSTTVTLQMTSLTAADTATYFCAREIIFHFNLWGPGTLVTVSS
VL: DVVMTQTPASVSEPVGGTVTIKCQASQSIRSYLAWYQQKPGQPPKVLIYKASTLASGVSSRFKGSGSGTQFTLTISDLECADAATYYCQGGVELNNYLYNPFGGGTEVVVK
notes: as for B1
For B3, the binding entry is given as “no binding (tested: OD 0.1 or lower)”.

B4: Antibody 37 (antibody, V domains shown)
VH: B3 VH with K12Q, G14E, A15G, T22K, F26L, L28F, N29S, D31S, I70M, I99K
VL: B3 VL with R30K, S31N, A34S, I48L, L94V
notes: as for B1
As for B4, the binding result is on record as “no binding (tested: OD 0.1 or lower)”.

B5: Antibody 49 (antibody, V domains shown)
VH: B3 VH with D31N
VL: B3 VL with R30S, L94V
notes: as for B1
For the molecule B5, the binding entry was “no binding (tested: OD 0.1 or lower)”.

B6: Antibody 25 (antibody, V domains shown)
VH: B3 VH with T20I, S30T, D31N, T53S, S62T, T73A
VL: B3 VL with L94F, P101S
notes: as for B1
Regarding B6, the binding result was “no binding (tested: OD 0.1 or lower)”.

B7: Antibody 77 (antibody, V domains shown)
VH: QSVEESGGRLVTPGTPLTLTCTISGFSLNNYWMSWVRQAPGKGLEWIGIISSSDTTWYASWAKGRFTISRTSTTVDLKMTSLTTEDTATYFCARDRGDVGYSDLDLWGPGTLVTVSS
VL: AYDMTQTPASVEVAVGGTVTIKCQASQSISSYLSWYQQKPGQPPKLLIYKASTLASGVSSRFSGSGSGTEFTLTISGVQCDDAATYYCQQGYSESNLDNAFGGGTEVVVK
notes: as for B1
B7: the binding result is “no binding (tested: OD 0.1 or lower)”.

B8: Antibody 86 (antibody, V domains shown)
VH: QEQLKESGGGLVTPGGTLTLTCTVSGIDLSNYAMVWVRQAPGKGLEWIGIIYTTASTTYANWAKGRFTISKTSTTVDLKITSPTTEDTATYFCVRRSGWDGFDPWGPGTLVTVSS
VL: AQVLTQTPASVSAAVGGTVTINCQASESISSYLNWYQQKPGQPPKRLIYRTSTLASGVPSRFKGSGSGTDFTLTISGVECADAATYYCQQDWSSSDVENVFGGGTEVVVK
notes: as for B1
Take B8: the binding result is recorded as “no binding (tested: OD 0.1 or lower)”.

B9: Antibody 11 (antibody, V domains shown)
VH: QSVEESGGRLVTPGTPLTLTCTVSGFSLRSYAMSWVRQAPGKGLEWVGIISTSGDTYYASWAKGRFTISKTSTTVDLKITSPTTEDTATYFCARYSYDDYGDYVRVGMDLWGPGTLVTVSS
VL: AAVLTQTPSPVSAAVGGTVSISCQSSKSVYYNNWLSWFQQKPGQRPKLLIYGASTLASGVPSRFKGSGSETQFTLTISDVQCDDAATYYCAGGYTSSSDTVSFGGGTEVVVK
notes: as for B1
With B9, the binding entry is “no binding (tested: OD 0.1 or lower)”.

B10: Antibody 78 (antibody, V domains shown)
VH: QSVEESGGRLVTPGTPLTLTCTVSGIDLSSYWMIWVRQAPGEGLEYIGFISNGGGAYYANWTKGRFTISRTSTTVDLKMTSLTTEDTATYFCARAYTTVTIGGFDLWGPGTLVTVSS
VL: AYDMTQTPASVEVAVGGTVTINCQASQNIYNGLAWYQQKPGQPPKLLIYLASTLASGVPSRFKGSGSGTEFTLTISDLECADAATYYCQQGFSVNNVGNVFGGGTEMVVK
notes: as for B1
Regarding B10, the binding entry is listed as “no binding (tested: OD 0.1 or lower)”.

B11: Antibody 72 (antibody, V domains shown)
VH: QSLEESGGRLVTPGTLLTLTCTASGIDLSGHAMAWVRQAPGKGLEWIGIIYDNGITNYPTWAKGRFTISKTSTTVELKFTSPTTEDTATYFCARDTGNGALRLTLWGPGTLVTVSS
VL: DIVMTQTPSPVSAAVGGTVTIKCQASQSIGSWLSWYQQKPGQRPKLLIYGASTLESGVPSRFKGSGSGTEFTLTISDLECADAATYYCHCTYGSVSGNAFGGGTEVVVK
notes: as for B1
Regarding B11, the binding result was “no binding (tested: OD 0.1 or lower)”.

B12: Antibody 34 (antibody, V domains shown)
VH: QEQLVESGGGLVQPEGSLTLTCKASGFSFSSGYYMCWVRQAPGKGLEWIACIYADSSESTYYASWAKGRFTISKTSSTTVTLQVTSLTAADTATYFCARWGTVAGYSTFNLWGPGTLVTVSS
VL: DVVMTQTPASVSEPVGGTVTIKCQASQSISTALAWYQQKPGQPPKLLIYFTSTLASGVSSRFKGSGSGAEFTLTISDLECADAATYYCQGYYYVTNFPFGGGTEVVVK
notes: as for B1
Turning to B12, the binding result is recorded as “no binding (tested: OD 0.1 or lower)”.

B13: Antibody 21 (antibody, V domains shown)
VH: QEHLEESGGGLVKPPGSLTLTCTASGFSFSSTYYICWVRQAPGKGLEWIGCIYAGSGTTYYASWAKGRFTISKTSSTTVTLQMASLTAADTATYFCARSSDSWTYGMDLWGPGTLVTVSS
VL: DIVMTQTPASVSEPVGGTVTIKCQASQSISSYLAWYQQKPGQPPKRLIYKASTLASGVPSRFKGSGSGTDFTLTISDLECADAATYYCQCTYGNTGSNFFYGFGGGTEVVVK
notes: as for B1
B13: the binding entry is on record as “no binding (tested: OD 0.1 or lower)”.

B14: Antibody 88 (antibody, V domains shown)
VH: QSVEESGGRLVTPGTPLTLTCTVSGFPLSSYVMSWVRQAPGTGLEYIGIVGIGGSAYYASWAKGRFTISRTSTTVDLKMTSLTPEDTATYFCARGAGGNFYSPLDLWGQGTLVTVSS
VL: DIVMTQTASPLSGAVGGTVTIKCQASQSISNELAWYQQKPGQRPKLLIYLASTLASGVPSRFKGSGSGTDFTLTISDLECADAATYYCQSYSDTSSISYGYGFGGGTEVVVK
notes: as for B1
In the case of B14, the binding result is “no binding (tested: OD 0.1 or lower)”.

B15: Antibody 74 (antibody, V domains shown)
VH: QSVEESGGRLVTPGTPLTLTCTVSGFSLSSGYMNWVRQAPGKGLEWIGRIHTLSGSIWYASWVKGRFTISKTSTTVDLKMTSLTTKDTATYFCARGNAGGSIEYGMDLWGPGTLVTVSA
VL: AYDMTQTPASVEAAVGGTVTIKCQASESITNYLNWYQQKPGQPPKLLIYSASTLASGVPSRFKGSGSGTQFTLTISGVECADAGTYYCQQGYSLINVGDIFGGGTEVVVR
notes: as for B1
Take B15: the binding result is listed as “no binding (tested: OD 0.1 or lower)”.

B16: Antibody 18 (antibody, V domains shown)
VH: QSVEESGGRLVTPGTPLTLTCTVSGFSLSTYWMSWVRQAPGKGLEYIGFINTGGNAYYASWAKGRFTISKTSTSVDLKITSPTTEDTATYFCAGAYVGDVGDGYALTLWGQGTLVTVSS
VL: DVVMTQTPASVSEPVGGTVTIKCQASQSIGNKLAWYQQVPGQPPKLLIYSASPLASGVSSRFKGSRSGTEYTLTISDLECADAATYYCQCTYYGSSGNAFGGGTEVVVK
notes: as for B1
As to B16, the binding result is “no binding (tested: OD 0.1 or lower)”.

B17: Antibody 20 (antibody, V domains shown)
VH: QSLEESGGGLVQPEGSLTLTCTASGLDASSNCWVCWVRQAPGKGLEWIACIYAIGSGVTYYASWVNGRFSISKTSSTTVTLQMTSLTVADTATYLCARVLNGVGYIDLWGPGTLVTVSS
VL: DIVMTQTPSSVEAAVGGTVTIKCQASQSVYNNNWLAWYQQIPGQPPKLLIYESSTLASGVPSRFKGSGSGTQFTLTISDVQCDDAAMYYCQTYYYSSSRTYAFGGGTEVVVK
notes: as for B1
Consider B17, for which the binding entry is reported as “no binding (tested: OD 0.1 or lower)”.

B18: Antibody 65 (antibody, V domains shown)
VH: QSVEESGGRLVTPGTPLTLTCTVSGFSLNNYYMTWVRQAPGKGLEWIGVISGSATTYYASWAKGRFTISQTSTTVDLRITSPTTEDTATYFCARSLTADIIDYYNIWGPGTLVTVSL
VL: DVVMTQTPASVSEPVGGTVTIKCQASEDINALLAWYQQKPGQPPKLLIYVASYLQSGVPSRFKGSGSGTEYTLTISGVQCADAATYYCQSAYDSSGYVGAFGGGTEVVVK
notes: as for B1
Regarding B18, the binding entry is on record as “no binding (tested: OD 0.1 or lower)”.

B19: Antibody 45 (antibody, V domains shown)
VH: QSVEESGGRLVTPGTPLTLTCTVSGFSLSSYAMTWVRQAPGKGLEWIGIIDHSRATYYANWAKGRFTISKTSSTTVDLKVTSLTTEDTATYFCARFFNPGGSGYLRLWGQGTLVTVSS
VL: DVVMTQTPASVSEPVGGTVTIKCQASQIISNWLAWYQQKPGQPPKLLIYGASILASGVPSRFKASRSGTDYTLTIGDLECADAATYYCQCPDYSDTSLGSFGGGTEVVVR
notes: as for B1
With B19, the binding entry is listed as “no binding (tested: OD 0.1 or lower)”.

B20: Antibody 15 (antibody, V domains shown)
VH: QSVEESGGRLVTPGTPLTLTCTVSGFSLNSHAMSWVRQAPGKGLEWIGIISSSGSAWYATWVKGRFTISKTSTTVDLKMTSLTTEDTATYFCARDSAMVPSNFNLWGQGTLVTVSS
VL: AIEMTQSPPSLSASVGETVRIRCLASEFLFNAVSWYQQKPGKPPTLLISGASNLESGVPPRFSGSGSGTDYTLTIGGVQAEDVATYYCLGDFSGGADLTFGAGTKVEIK
notes: as for B1
Turning to B20, the binding entry is listed as “no binding (tested: OD 0.1 or lower)”.

(Values after patent publication US20150259430A1 (MAB DISCOVERY, published 2015).)
